Measurements as given in publication PMC7911381.
These are yes or no findings as the source states them, for the method shown. Binding seen in cells or lysates may run through a third protein. Some entries that bind do so weakly or less than the wild type.

The chains behind the UniProt entries cited, without tags or fusion partners. Residues count along the entry.
UniProt P16794: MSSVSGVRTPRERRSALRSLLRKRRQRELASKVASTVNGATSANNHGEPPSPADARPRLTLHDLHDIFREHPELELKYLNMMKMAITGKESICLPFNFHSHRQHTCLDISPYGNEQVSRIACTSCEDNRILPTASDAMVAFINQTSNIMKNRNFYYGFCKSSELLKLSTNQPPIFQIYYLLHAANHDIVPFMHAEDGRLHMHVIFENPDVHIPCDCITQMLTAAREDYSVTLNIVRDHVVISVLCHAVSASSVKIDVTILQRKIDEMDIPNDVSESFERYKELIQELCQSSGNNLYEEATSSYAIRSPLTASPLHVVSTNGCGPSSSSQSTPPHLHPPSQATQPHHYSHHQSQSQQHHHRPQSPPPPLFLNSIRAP
UniProt Q07021, residues 50-282: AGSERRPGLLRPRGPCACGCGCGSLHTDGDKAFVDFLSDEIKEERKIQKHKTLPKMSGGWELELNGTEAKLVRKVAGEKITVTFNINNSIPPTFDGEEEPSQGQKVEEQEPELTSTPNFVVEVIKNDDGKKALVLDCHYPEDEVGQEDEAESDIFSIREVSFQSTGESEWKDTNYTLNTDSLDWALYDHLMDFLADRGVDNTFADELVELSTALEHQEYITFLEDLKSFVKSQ

Legend:
Experiment in all cases: co-IP
[1] = target: HCMV pUL53-Flag (human cytomegalovirus (HCMV)) (UniProt P16794)
[2] = target: PKCα-Flag (UniProt P17252)
[3] = target: p32(50-282)-Flag (UniProt Q07021)
[4] = target: T1, emerin (UniProt P50402)
T1 sequence: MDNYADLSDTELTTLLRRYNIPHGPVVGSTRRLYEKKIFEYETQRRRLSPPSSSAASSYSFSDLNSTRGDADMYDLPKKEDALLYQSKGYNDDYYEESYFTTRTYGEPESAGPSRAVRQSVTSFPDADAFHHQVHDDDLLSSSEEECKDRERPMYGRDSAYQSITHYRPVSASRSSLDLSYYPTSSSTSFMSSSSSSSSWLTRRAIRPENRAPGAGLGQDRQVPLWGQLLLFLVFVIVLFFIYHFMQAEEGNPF

Measured: binding

HCMV pUL50-HA (non-mutated parental protein) (from UniProt P16791 1-397)
binds: all assays above
